Construct, isoform or probe ends are uncertain for at least one entry. A weaker result is weaker than the reference pair of the same experiment. Where a protein sequence is shown, tags need not be part of it.
Molecular target: T1, XerA (Pab0255) (Pyrococcus abyssi) (UniProt Q9V1P5)
T1 sequence (looked up): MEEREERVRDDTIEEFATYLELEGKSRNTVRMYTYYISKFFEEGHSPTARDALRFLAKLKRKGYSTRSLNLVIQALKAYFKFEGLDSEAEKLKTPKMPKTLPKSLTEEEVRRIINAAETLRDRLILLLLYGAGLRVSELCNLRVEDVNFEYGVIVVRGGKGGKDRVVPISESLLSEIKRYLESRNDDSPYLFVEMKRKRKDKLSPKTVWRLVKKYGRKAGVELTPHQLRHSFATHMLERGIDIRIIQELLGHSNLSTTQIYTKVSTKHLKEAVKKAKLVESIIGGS
Assay: competition with a labelled probe
Conditions: 20 C, 40 pmol XerA, increasing poly(dIdC)2 competitor, much lower affinity than dif; EMSA: 0.5 uM labeled DNA, 50 mM Tris pH 7.5, 30 mM NaCl, 0.5 ug poly(dIdC).poly(dIdC), 20 ul, 30 min at 20 or 65 C; native PAGE in TGE at 4 C; recombinant protein; residues 1-286; protein details: N-terminal His6 (MHHHHHH, from forward primer); label: 5'-32P on top strand

GTTAACTATCTTTTCCGCCTCCGGAGCCGGAGGTCCCGTGTTG (double strand) [attP (SSV1 minimal)]
binding result: binds more weakly
